Test results taken from article PMC9935399.
Results are given in words; binding and its absence hold for the method and conditions named. Binding seen in cells or lysates may run through a third protein. A yes stands for co-enrichment or nearness to the bait. Other partners may have been found.

By UniProt entry, the sequences of proteins in these tests, tags left out.
UniProt P11387: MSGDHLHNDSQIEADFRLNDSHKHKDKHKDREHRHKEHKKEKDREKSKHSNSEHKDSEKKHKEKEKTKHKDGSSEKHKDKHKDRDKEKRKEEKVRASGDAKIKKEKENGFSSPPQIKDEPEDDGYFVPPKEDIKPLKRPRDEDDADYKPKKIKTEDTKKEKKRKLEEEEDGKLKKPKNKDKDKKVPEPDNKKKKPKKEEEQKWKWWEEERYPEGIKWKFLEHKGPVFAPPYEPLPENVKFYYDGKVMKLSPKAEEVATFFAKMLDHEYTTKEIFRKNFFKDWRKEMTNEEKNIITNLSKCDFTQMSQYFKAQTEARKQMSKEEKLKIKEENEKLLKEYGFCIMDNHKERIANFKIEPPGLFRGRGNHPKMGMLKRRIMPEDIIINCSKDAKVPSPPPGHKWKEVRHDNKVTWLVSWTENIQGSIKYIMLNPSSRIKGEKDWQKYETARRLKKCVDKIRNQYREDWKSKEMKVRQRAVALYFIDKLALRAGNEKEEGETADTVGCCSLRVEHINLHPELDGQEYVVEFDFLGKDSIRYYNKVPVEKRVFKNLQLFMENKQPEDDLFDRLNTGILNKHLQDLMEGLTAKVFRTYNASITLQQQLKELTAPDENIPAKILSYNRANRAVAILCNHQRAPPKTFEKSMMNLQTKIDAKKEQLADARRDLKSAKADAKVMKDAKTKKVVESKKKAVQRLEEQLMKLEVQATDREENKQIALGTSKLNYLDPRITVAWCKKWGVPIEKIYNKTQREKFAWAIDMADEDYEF
UniProt Q13185: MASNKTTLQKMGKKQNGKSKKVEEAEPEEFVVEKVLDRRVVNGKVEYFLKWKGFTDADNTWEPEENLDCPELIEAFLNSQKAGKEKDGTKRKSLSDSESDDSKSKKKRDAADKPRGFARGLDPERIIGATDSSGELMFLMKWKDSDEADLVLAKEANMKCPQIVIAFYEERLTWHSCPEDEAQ
UniProt Q9BUH6: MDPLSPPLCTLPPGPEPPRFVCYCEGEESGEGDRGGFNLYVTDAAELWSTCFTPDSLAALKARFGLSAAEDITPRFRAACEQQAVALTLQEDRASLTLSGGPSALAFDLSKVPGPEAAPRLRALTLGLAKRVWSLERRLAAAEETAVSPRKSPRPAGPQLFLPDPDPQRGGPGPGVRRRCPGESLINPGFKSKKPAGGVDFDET

Molecular target: BLRP-2XHA-Top1 wt (topoisomerase I) (UniProt P11387)
Assay: affinity purification with mass spectrometry; ReCLIP: MCF7 cells cross-linked with 0.6 mM DSP (reversible), nuclear extracts, tagged TOP1 complexes captured on streptavidin beads, washes up to 500 mM NaCl, LC-MS/MS; Veh (-E2) and E2-treated cells

binding	Substance
binds	heterochromatin protein 1 gamma (HP1γ) (from UniProt Q13185 1-183)
binds	paralogues of XRCC4 and XLF (PAXX) (from UniProt Q9BUH6 1-204)
